Results are given in words; binding and its absence hold for the method and conditions named. In cells and extracts the contact can be indirect. Here binding means that the protein was enriched with, or labelled near, the bait; the list need not be complete. Where a sequence is shown, tags or fusion partners need not be part of it.

In test [1] the target is T1, PCFS4-MYC (PCFS4 with 12× MYC, native promoter, in PCFS4-MYCres transgenic plants) (Arabidopsis thaliana) (UniProt Q0WPF2).
T1 sequence: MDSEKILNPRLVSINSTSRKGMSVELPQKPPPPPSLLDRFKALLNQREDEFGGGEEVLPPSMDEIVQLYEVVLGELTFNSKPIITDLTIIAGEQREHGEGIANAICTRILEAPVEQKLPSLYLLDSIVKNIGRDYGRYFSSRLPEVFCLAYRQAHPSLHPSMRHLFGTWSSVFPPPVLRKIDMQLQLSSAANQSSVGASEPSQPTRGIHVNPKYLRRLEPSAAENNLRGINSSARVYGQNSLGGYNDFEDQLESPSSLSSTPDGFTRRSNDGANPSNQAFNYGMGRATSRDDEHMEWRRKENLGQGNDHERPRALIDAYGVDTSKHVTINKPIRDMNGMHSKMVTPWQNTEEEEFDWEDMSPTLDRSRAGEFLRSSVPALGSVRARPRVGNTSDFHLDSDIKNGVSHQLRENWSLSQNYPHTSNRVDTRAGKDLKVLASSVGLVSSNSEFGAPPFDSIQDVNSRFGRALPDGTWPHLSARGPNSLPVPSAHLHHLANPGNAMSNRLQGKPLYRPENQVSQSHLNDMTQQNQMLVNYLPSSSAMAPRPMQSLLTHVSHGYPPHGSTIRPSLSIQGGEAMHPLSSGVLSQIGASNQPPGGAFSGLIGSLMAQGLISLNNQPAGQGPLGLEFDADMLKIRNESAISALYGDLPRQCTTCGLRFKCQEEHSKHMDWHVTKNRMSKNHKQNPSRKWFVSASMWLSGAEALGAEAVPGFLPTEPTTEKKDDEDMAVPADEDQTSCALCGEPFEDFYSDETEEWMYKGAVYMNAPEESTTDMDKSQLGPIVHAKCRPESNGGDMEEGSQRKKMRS
Description: affinity purification with mass spectrometry; 12-day-old PCFS4-MYCres or FPA-MYCres plants cross-linked in 1% formaldehyde; nuclear lysate on anti-Myc magnetic beads; low-salt, high-salt (500 mM NaCl), LiCl and Tris washes; LC-MS/MS; wild-type plants as negative control.

The target in test [2] is T2, FPA-MYC (FPA with 9× MYC, native promoter, in FPA-MYCres transgenic plants) (Arabidopsis thaliana) (UniProt Q8LPQ9).
T2 sequence: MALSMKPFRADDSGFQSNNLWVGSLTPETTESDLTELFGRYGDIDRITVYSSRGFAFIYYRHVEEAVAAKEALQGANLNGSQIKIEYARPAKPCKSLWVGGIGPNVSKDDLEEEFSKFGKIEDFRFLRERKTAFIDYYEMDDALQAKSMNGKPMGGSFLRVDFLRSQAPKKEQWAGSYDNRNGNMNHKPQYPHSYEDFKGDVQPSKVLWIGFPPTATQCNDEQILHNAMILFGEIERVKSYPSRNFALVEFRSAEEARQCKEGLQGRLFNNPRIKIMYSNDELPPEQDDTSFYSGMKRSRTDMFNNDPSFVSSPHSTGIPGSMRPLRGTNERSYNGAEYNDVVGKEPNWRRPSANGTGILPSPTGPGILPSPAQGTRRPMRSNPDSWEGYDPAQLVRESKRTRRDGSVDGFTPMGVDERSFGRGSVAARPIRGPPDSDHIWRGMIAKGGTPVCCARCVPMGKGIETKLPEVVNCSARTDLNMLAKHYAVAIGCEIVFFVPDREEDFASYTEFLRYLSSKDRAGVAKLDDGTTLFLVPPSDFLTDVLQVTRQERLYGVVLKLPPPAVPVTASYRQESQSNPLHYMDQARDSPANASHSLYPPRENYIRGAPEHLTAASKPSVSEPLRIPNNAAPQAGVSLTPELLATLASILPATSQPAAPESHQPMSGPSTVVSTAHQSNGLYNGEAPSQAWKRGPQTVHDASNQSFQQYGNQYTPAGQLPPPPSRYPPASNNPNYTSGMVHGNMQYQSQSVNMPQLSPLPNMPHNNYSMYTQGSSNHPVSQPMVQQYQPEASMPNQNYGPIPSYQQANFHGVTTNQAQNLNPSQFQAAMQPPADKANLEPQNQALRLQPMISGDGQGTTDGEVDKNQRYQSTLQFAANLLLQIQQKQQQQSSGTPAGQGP
Described as above.

B1: CLPS3 (endogenous, Arabidopsis plants) (protein, UniProt Q9SR06 1-444)
chain: MAYGGPSMNPPALSGAVPGSANLKQVKLERESELRIEVSEEPLRLRVVNGTAEIFGSELPPEIWRTFPPRMKFAVFTWYGATIEMDGVTETDYTADETPMVSYINVHAILDARRRFAKASTSNDPESSQGPRVIVVGPTDSGKSTLTKMLLSWAAKQGWRPTFVDLDVGQGSITIPGSIAAAPIEMPLDPVEGFPLDMALVYYYGHASPNMNVELYKALVKELAQVLEKQFVGNPESRAAGMVINTMGWIEGIGYELLLHAIDTFNASVVLVLGQEKLFSRLKDVLRSKSNVDVVKLHKSGGVVARVKEVRKRSRNFKIQEYFYGLSKELSPYANTSSFSDLQVFRIGGGPQAPKSALPAGSTSVSNPLRVTPVNIDDRDLLHSVLAVSYAEEPDQIISSNVSGFVYVTEVNVQKKKITYLAPSPGTLPSKLLVAGSLAWLESV
Turning to B1, in test [1], the binding result is “binds”.

B2: PCFS4 (endogenous, Arabidopsis plants) (protein, UniProt Q0WPF2 1-808)
chain: MDSEKILNPRLVSINSTSRKGMSVELPQKPPPPPSLLDRFKALLNQREDEFGGGEEVLPPSMDEIVQLYEVVLGELTFNSKPIITDLTIIAGEQREHGEGIANAICTRILEAPVEQKLPSLYLLDSIVKNIGRDYGRYFSSRLPEVFCLAYRQAHPSLHPSMRHLFGTWSSVFPPPVLRKIDMQLQLSSAANQSSVGASEPSQPTRGIHVNPKYLRRLEPSAAENNLRGINSSARVYGQNSLGGYNDFEDQLESPSSLSSTPDGFTRRSNDGANPSNQAFNYGMGRATSRDDEHMEWRRKENLGQGNDHERPRALIDAYGVDTSKHVTINKPIRDMNGMHSKMVTPWQNTEEEEFDWEDMSPTLDRSRAGEFLRSSVPALGSVRARPRVGNTSDFHLDSDIKNGVSHQLRENWSLSQNYPHTSNRVDTRAGKDLKVLASSVGLVSSNSEFGAPPFDSIQDVNSRFGRALPDGTWPHLSARGPNSLPVPSAHLHHLANPGNAMSNRLQGKPLYRPENQVSQSHLNDMTQQNQMLVNYLPSSSAMAPRPMQSLLTHVSHGYPPHGSTIRPSLSIQGGEAMHPLSSGVLSQIGASNQPPGGAFSGLIGSLMAQGLISLNNQPAGQGPLGLEFDADMLKIRNESAISALYGDLPRQCTTCGLRFKCQEEHSKHMDWHVTKNRMSKNHKQNPSRKWFVSASMWLSGAEALGAEAVPGFLPTEPTTEKKDDEDMAVPADEDQTSCALCGEPFEDFYSDETEEWMYKGAVYMNAPEESTTDMDKSQLGPIVHAKCRPESNGGDMEEGSQRKKMRS
Regarding B2, the binding result in test [2] is listed as “binds”.

B3: FPA (endogenous, Arabidopsis plants) (protein, UniProt Q8LPQ9 1-901)
chain: MALSMKPFRADDSGFQSNNLWVGSLTPETTESDLTELFGRYGDIDRITVYSSRGFAFIYYRHVEEAVAAKEALQGANLNGSQIKIEYARPAKPCKSLWVGGIGPNVSKDDLEEEFSKFGKIEDFRFLRERKTAFIDYYEMDDALQAKSMNGKPMGGSFLRVDFLRSQAPKKEQWAGSYDNRNGNMNHKPQYPHSYEDFKGDVQPSKVLWIGFPPTATQCNDEQILHNAMILFGEIERVKSYPSRNFALVEFRSAEEARQCKEGLQGRLFNNPRIKIMYSNDELPPEQDDTSFYSGMKRSRTDMFNNDPSFVSSPHSTGIPGSMRPLRGTNERSYNGAEYNDVVGKEPNWRRPSANGTGILPSPTGPGILPSPAQGTRRPMRSNPDSWEGYDPAQLVRESKRTRRDGSVDGFTPMGVDERSFGRGSVAARPIRGPPDSDHIWRGMIAKGGTPVCCARCVPMGKGIETKLPEVVNCSARTDLNMLAKHYAVAIGCEIVFFVPDREEDFASYTEFLRYLSSKDRAGVAKLDDGTTLFLVPPSDFLTDVLQVTRQERLYGVVLKLPPPAVPVTASYRQESQSNPLHYMDQARDSPANASHSLYPPRENYIRGAPEHLTAASKPSVSEPLRIPNNAAPQAGVSLTPELLATLASILPATSQPAAPESHQPMSGPSTVVSTAHQSNGLYNGEAPSQAWKRGPQTVHDASNQSFQQYGNQYTPAGQLPPPPSRYPPASNNPNYTSGMVHGNMQYQSQSVNMPQLSPLPNMPHNNYSMYTQGSSNHPVSQPMVQQYQPEASMPNQNYGPIPSYQQANFHGVTTNQAQNLNPSQFQAAMQPPADKANLEPQNQALRLQPMISGDGQGTTDGEVDKNQRYQSTLQFAANLLLQIQQKQQQQSSGTPAGQGP
Consider B3, for which, in test [1], the binding entry was “binds”.

For the origin of these results see PMC12591160, “Polyadenylation Complex CFII Recognizes Downstream Cis‐element for Pre‐mRNA Polyadenylation Through Interaction with an RNA‐Binding Protein in Arabidopsis”.
